Measured values: publication PMC7617541

Target: T1, FL-pOTC-TST (full-length precursor of human ornithine transcarbamylase with a C-terminal twin-strep tag) (human) (UniProt P00480)
T1 sequence: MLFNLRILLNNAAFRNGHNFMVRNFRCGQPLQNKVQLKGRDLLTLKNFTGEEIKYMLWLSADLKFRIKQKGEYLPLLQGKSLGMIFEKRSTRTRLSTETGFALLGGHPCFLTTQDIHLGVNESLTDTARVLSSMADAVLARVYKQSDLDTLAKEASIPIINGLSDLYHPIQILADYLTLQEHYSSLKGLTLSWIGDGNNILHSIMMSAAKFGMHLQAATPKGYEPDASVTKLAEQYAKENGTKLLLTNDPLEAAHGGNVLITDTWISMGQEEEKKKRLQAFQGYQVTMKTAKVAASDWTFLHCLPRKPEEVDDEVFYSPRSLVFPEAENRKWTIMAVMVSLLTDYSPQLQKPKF
Assay: affinity purification with mass spectrometry; pOTC-TST translated in rabbit reticulocyte lysate (1 ml), purified under native conditions on StrepTactin resin via the TST; SDS-PAGE (SYPRO Ruby) and on-bead trypsin digestion with LC/MS-MS; GFP-TST as negative control

B1: St13 (also known as Hip; rabbit reticulocyte lysate) (protein, UniProt G1SXL3 1-369)
chain: MDPRKVNELRAFVKLCKQDPSVLHTEEMRFLREWVESMGGKVPPATHKAKPEENIKEEKTDSKKAEETIQTDEPSSEESDLEIDNEGVIEPDTDAPQEMGDENVEITEEMMDQANEKKGAAIEALNDGELQKAIDLFTDAIKLNPRLAILYAKRASVFVKLQKPNAAIRDCDRAIDINPDSAQPYKWRGKAHRLLGHWEEAAHDLALACKLDYDEDASAVLKEVQPRAQKIAEHRRKYERKREEREIKERMERVKKAREEHERAQREEEARRQSGAQYGSFPGGFPGGMPGNFPGGMPGMGGAMPGMAGMPGLNEILSDPEVLAAMQDPEVMVAFQDVAQNPANMSKYQSNPKVMNLISKLSAKFGGQA
- binding: binds

These are yes or no findings as the source states them, for the method shown. In cells and extracts the contact can be indirect. Here binding means that the protein was enriched with, or labelled near, the bait; the list need not be complete. Sequences can lack the tags named with a protein.
